From CN113388035A
Results are given in words; binding and its absence hold for the method and conditions named. Some results given as binding are weak or reduced against the parent protein; the word gives no strength.

By UniProt entry, the sequences of proteins in these tests, tags left out. Residues count along the entry.
UniProt Q969D9, residues 29-159: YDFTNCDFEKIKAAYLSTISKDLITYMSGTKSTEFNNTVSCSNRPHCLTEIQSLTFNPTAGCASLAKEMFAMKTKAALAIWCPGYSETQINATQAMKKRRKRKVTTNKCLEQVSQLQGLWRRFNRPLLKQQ

Biological target: 人TSLP (human thymic stromal lymphopoietin) protein (human) (UniProt Q969D9)
Test: ELISA, antigen coated at 1ug/ml, HRP-goat anti-human IgG

binding: binds
B1: hzD01Lm12 (humanized, affinity-matured anti-human TSLP antibody) (antibody, human IgG2, V domains shown, not shown: large carriers)
VH: EVQLVQSGAEVKKPGASVKVSCKASGYTFTNYFIDWVRQAPGQGLEWIGVINPGSGGTNFNEKFKGRVTMTRDTSTSTAYMELSSLRSEDTAVYFCARESEVGEGFAYWGQGTLVTVSS
VL: DIQMTQSPSSLSASVGDRVTISCRASQDISNYLNWYQQKPGKAPKLLIYYTSTLHSGVPSRFSGSGSGTDYTLTISSLQPEDIATYFCQQFDTLPYPFGQGTKLEIK
